From paper PMC8319341
Results are given in words; binding and its absence hold for the method and conditions named. In cells and extracts the contact can be indirect. Some results given as binding are weak or reduced against the parent protein; the word gives no strength. Sequences can lack the tags named with a protein.

The chains behind the UniProt entries cited, without tags or fusion partners. Where a name states a change or a piece, a line headed by the entry shows the natural chain unless it says otherwise. A line that says so, or that is headed by a name, gives the form on record, which may keep a tag or linker. Residues count along the entry.
UniProt P70414, residues 33-970: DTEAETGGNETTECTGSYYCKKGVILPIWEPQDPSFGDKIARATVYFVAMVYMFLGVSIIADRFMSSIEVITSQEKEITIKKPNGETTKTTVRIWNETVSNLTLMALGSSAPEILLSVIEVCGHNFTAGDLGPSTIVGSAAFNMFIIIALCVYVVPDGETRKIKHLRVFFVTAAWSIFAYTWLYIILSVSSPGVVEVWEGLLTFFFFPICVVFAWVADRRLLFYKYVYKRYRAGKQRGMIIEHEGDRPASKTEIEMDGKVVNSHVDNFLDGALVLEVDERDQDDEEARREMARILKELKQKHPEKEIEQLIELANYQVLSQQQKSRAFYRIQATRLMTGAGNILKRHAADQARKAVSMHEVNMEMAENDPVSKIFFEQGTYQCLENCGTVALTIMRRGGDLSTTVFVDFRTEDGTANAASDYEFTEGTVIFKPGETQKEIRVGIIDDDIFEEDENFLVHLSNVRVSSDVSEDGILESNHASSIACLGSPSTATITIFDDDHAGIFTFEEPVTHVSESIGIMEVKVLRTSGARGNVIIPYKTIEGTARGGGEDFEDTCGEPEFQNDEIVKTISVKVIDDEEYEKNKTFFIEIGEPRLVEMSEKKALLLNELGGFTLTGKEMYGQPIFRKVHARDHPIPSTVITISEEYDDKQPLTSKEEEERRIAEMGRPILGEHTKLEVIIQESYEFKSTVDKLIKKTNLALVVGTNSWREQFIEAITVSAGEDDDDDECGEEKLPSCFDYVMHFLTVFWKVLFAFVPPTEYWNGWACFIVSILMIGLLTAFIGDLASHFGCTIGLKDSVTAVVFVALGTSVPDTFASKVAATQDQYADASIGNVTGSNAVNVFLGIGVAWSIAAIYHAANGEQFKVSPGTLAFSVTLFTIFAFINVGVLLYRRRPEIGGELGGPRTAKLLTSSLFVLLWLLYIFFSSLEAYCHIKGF
Sarcoplasmic endoplasmic reticular calcium ATPase 2 (SERCA2) (O55143-2, form named): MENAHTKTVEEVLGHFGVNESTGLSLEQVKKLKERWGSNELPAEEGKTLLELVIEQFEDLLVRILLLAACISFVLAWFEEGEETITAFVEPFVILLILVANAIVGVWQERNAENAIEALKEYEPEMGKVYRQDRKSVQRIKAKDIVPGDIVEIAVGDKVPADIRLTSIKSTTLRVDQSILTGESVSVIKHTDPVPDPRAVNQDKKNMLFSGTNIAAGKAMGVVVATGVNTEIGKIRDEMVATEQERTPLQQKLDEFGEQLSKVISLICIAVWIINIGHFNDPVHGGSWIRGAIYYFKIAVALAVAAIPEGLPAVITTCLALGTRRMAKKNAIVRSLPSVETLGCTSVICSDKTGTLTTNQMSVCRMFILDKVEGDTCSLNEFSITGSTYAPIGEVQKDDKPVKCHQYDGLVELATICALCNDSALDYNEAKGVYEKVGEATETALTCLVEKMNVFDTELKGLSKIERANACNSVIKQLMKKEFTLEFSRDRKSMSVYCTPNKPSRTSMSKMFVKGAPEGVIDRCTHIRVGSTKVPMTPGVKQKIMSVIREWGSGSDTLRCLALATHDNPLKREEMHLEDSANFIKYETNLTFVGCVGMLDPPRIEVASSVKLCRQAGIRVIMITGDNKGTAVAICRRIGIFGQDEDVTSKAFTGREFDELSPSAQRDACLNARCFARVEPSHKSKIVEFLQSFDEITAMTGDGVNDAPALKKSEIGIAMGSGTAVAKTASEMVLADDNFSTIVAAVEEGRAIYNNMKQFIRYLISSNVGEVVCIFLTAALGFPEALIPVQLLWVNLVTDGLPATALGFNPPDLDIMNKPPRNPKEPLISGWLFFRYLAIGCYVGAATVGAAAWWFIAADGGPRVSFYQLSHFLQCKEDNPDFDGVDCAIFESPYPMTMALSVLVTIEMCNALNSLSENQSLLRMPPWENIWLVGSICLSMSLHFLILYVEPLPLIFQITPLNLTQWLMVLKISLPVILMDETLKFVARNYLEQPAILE

What was measured:
[1] = target: T1, Voltage dependent anion channel 2 (VDAC2) (mouse (endogenous in heart)) (UniProt Q60930); experiment: co-IP; left ventricular lysate of 8-week-old WT and VDAC2-KO mice (4 mg/ml, precleared); 5 ug anti-VDAC2 antibody or control IgG on protein A magnetic beads, 1 h at room temperature, washed with PBST; western blot; KO heart as negative control
T1 sequence: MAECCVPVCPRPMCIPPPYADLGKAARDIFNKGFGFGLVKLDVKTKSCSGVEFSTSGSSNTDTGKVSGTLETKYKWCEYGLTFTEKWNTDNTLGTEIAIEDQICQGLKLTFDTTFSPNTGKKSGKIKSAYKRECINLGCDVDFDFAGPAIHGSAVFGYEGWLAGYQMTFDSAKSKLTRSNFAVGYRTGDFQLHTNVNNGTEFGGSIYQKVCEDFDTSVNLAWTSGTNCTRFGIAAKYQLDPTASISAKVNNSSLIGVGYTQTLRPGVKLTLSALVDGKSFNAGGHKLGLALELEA

[2] = target: T1, Voltage dependent anion channel 2 (VDAC2) (mouse (endogenous in heart)); experiment: proximity ligation; Duolink In Situ PLA on paraffin-embedded mouse heart sections with antibodies to VDAC2 and to SERCA2 or NCX1

Row | binding [1] | binding [2] | Substance
1 | binds | binds | Sodium–calcium exchanger 1 (NCX1) (from UniProt P70414 33-970)
2 | binds | binds | Sarcoplasmic endoplasmic reticular calcium ATPase 2 (SERCA2) (from UniProt O55143-2 1-998)
